Assay results: PubChem BioAssay AID270 (DTP/NCI, 2004)
The list does not hold the whole screen: it gathers tests that were run many times, whatever their T/C, doses with no T/C, and many T/C values between a quarter and a half above the control. Other doses and runs of a compound stand elsewhere. T/C: endpoint of the treated group in % of that of the vehicle group. Schedule codes are those of the source, taken here to give the interval after Q, in days (D) or hours (H), and the number of doses after X. Some doses have a count of surviving animals in place of a T/C: the source files T/C as zero there, which appears to mark a toxic dose or a test without result, not a measured value. Some doses without a T/C left all or most animals alive at the check, yet need not have been tolerated: the source hardly ever lists a survival T/C far under the control, and the zero likely stands for such cases as well. Survivors were counted at the toxicity check, usually on the fifth day, unless a day is given; later deaths do not show. Marks such as (2×) say how often a value occurs here. Where survival is the endpoint, this PubChem deposit counts one and a half times the control or more as active, and values a quarter to a half above the control carry no call in these data; other NCI protocols may use other cut-offs. Some T/C values carry the count of animals alive at the toxicity check (mostly the fifth day); where none is given, no animal had died by that day.

Test system: BDF1 mice, s.c. Lewis lung carcinoma, T/C %
Assay: NCI In Vivo Anticancer Drug Screen. Data for tumor model Lewis Lung Carcinoma (subcutaneous) in B6D2F1 (BDF1) mice
Summary of the method: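 The value reflects a ratio in which the treated cohort's survival time or tumour size is compared against mice receiving only vehicle.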

[1] = T/C endpoint: median survival time, dose: 4.0 micrograms/kg/injection, schedule: Q01DX009 (ip), vehicle: saline, higher T/C = longer survival
[2] = T/C endpoint: median survival time, dose: 50.0 mg/kg/injection, schedule: Q01DX009 (ip), vehicle: saline with Tween-80, higher T/C = longer survival

CCOC(=O)C1C(=O)C(CN(CCCl)CCCl)C(=O)C(C(=O)OCC)C1c1ccc(O)cc1 (stereo not given)
survivor count (T/C endpoint: median survival time, dose: 50.0 mg/kg/injection, schedule: Q01DX009 (ip), vehicle: Klucel (hydroxypropylcellulose) (HPC), higher T/C = longer survival): 9 of 10

CNC1=C(N2CC2)C(=O)C(NC)=C(N2CC2)C1=O
T/C (T/C endpoint: median survival time, dose: 0.05 mg/kg/injection, schedule: Q01DX009 (ip), vehicle: saline, higher T/C = longer survival): 132 % of control

CN(C)CCCNc1c2ccccc2nc2cccc([N+](=O)[O-])c12
T/C [1]: 131 % of control
survivor count [1]: 10 of 10
T/C (T/C endpoint: median survival time, dose: 8.0 micrograms/kg/injection, schedule: Q01DX009 (ip), vehicle: saline, higher T/C = longer survival): 139 % of control
survivor count (T/C endpoint: median survival time, dose: 16.0 micrograms/kg/injection, schedule: Q01DX009 (ip), vehicle: saline, higher T/C = longer survival): 10 of 10
T/C (T/C endpoint: median survival time, dose: 32.0 micrograms/kg/injection, schedule: Q01DX009 (ip), vehicle: saline, higher T/C = longer survival): 128 % of control
survivor count (T/C endpoint: median survival time, dose: 63.0 micrograms/kg/injection, schedule: Q01DX009 (ip), vehicle: saline, higher T/C = longer survival): 10 of 10 (2×)
survivor count (T/C endpoint: median survival time, dose: 125.0 micrograms/kg/injection, schedule: Q01DX009 (ip), vehicle: saline, higher T/C = longer survival): 10 of 10
survivor count (T/C endpoint: median survival time, dose: 250.0 micrograms/kg/injection, schedule: Q01DX009 (ip), vehicle: saline, higher T/C = longer survival): 10 of 10
survivor count (T/C endpoint: median survival time, dose: 500.0 micrograms/kg/injection, schedule: Q01DX009 (ip), vehicle: saline, higher T/C = longer survival): 10 of 10
survivor count (T/C endpoint: median survival time, dose: 1000.0 micrograms/kg/injection, schedule: Q01DX009 (ip), vehicle: saline, higher T/C = longer survival): 7 of 10

NC(N)=Nc1nc2ccccc2s1
T/C (T/C endpoint: mean tumor weight, dose: 6.25 mg/kg/injection, schedule: Q01DX011 (ip), vehicle: saline, evaluated on day 12, higher T/C = larger tumour): 129 % of control
survivor count (T/C endpoint: mean tumor weight, dose: 12.5 mg/kg/injection, schedule: Q01DX011 (ip), vehicle: saline, higher T/C = larger tumour): 0 of 6
T/C (T/C endpoint: mean tumor weight, dose: 25.0 mg/kg/injection, schedule: Q01DX011 (ip), vehicle: saline, evaluated on day 12, higher T/C = larger tumour): 136 % of control

C=CC(=O)[O][Pb]([CH3])([CH3])[CH3]
T/C (T/C endpoint: median survival time, dose: 0.75 mg/kg/injection, schedule: Q01DX009 (ip), vehicle: saline with Tween-80, higher T/C = longer survival): 130 % of control [8 of 9 alive]
T/C (T/C endpoint: median survival time, dose: 1.5 mg/kg/injection, schedule: Q01DX009 (ip), vehicle: saline with Tween-80, higher T/C = longer survival): 133 % of control [9 of 10 alive]
survivor count (T/C endpoint: median survival time, dose: 3.0 mg/kg/injection, schedule: Q01DX009 (ip), vehicle: saline with Tween-80, higher T/C = longer survival): 10 of 10
survivor count (T/C endpoint: median survival time, dose: 6.0 mg/kg/injection, schedule: Q01DX009 (ip), vehicle: saline with Tween-80, higher T/C = longer survival): 10 of 10
survivor count (T/C endpoint: median survival time, dose: 12.0 mg/kg/injection, schedule: Q01DX009 (ip), vehicle: saline with Tween-80, higher T/C = longer survival): 4 of 10

Oc1ccc(Nc2ccnc3cc(Cl)ccc23)cc1CN(CCCl)CCCl
T/C (T/C endpoint: median survival time, dose: 1.25 mg/kg/injection, schedule: Q01DX009 (ip), vehicle: saline, higher T/C = longer survival): 135 % of control
survivor count (T/C endpoint: median survival time, dose: 5.0 mg/kg/injection, schedule: Q01DX009 (ip), vehicle: saline, higher T/C = longer survival): 10 of 10
survivor count (T/C endpoint: median survival time, dose: 10.0 mg/kg/injection, schedule: Q01DX009 (ip), vehicle: saline, higher T/C = longer survival): 6 of 10

CCCCCCCCCCCCSC(=N)N
survivor count [2]: 1 of 10

CC1CCC[N-]C1.CC1CCC[N-]C1.CC1CCC[N-]C1.CC1CCC[N-]C1.[Cl][Rh][Cl] (stereo not given)
survivor count (T/C endpoint: median survival time, dose: 12.0 mg/kg/injection, schedule: Q01DX009 (ip), vehicle: Klucel (hydroxypropylcellulose) (HPC), higher T/C = longer survival): 7 of 10

Cc1cnc(/C=N\NC(N)=S)c2cccc(N)c12
T/C (T/C endpoint: median survival time, dose: 3.12 mg/kg/injection, schedule: Q01DX009 (ip), vehicle: Klucel (hydroxypropylcellulose) (HPC), higher T/C = longer survival): 127 % of control
T/C (T/C endpoint: median survival time, dose: 3.13 mg/kg/injection, schedule: Q01DX009 (ip), vehicle: saline with Tween-80, higher T/C = longer survival): 125 % of control
survivor count [2]: 10 of 10

CC[C@H](CC[C@@H](C)[C@H]1CC[C@H]2[C@@H]3CC=C4C[C@@H](O)CC[C@]4(C)[C@H]3CC[C@]12C)C(C)C
survivor count (T/C endpoint: mean tumor weight, dose: 200.0 mg/kg/injection, schedule: Q01DX011 (ip), vehicle: water, higher T/C = larger tumour): 2 of 6
survivor count (T/C endpoint: mean tumor weight, dose: 300.0 mg/kg/injection, schedule: Q01DX011 (ip), vehicle: water, higher T/C = larger tumour): 1 of 6
